Common to all, as to experiment: FRET or BRET; FSI-FRET between EphA2-mTurq and EphA2-eYFP in the plasma membrane of live HEK293T cells in hypo-osmotic medium; with 5 μg per ml (~50 nM) ephrinA1-Fc; also at donor to acceptor ratios 3:1, 1:1, 1:3
In general terms: Bioluminescence resonance energy transfer reports proximity on the nanometre scale.

The target in assay [1] is EphA2 R103E mutant, full-length, tagged at the C-terminus with mTurquoise or eYFP (UniProt P29317).
In assay [2] the target is EphA2 G131Y mutant, full-length, tagged at the C-terminus with mTurquoise or eYFP (UniProt P29317).
For assay [3], the target named is EphA2 L223R/L254R/V255R triple mutant, full-length, tagged at the C-terminus with mTurquoise or eYFP (UniProt P29317).

No constants are given. Whether binding was seen depends on the method and setting. Binding seen in cells or lysates may run through a third protein. Some results given as binding are weak or reduced against the parent protein; the word gives no strength.

For “EphA2 R103E mutant, full-length, tagged at the C-terminus with mTurquoise or eYFP (from UniProt P29317 24-976) (receptor)”, the binding result in assay [1] was “binds”.

Consider “EphA2 G131Y mutant, full-length, tagged at the C-terminus with mTurquoise or eYFP (from UniProt P29317 24-976) (receptor)”, for which the binding entry in assay [2] is “binds”.

B1: EphA2 L223R/L254R/V255R triple mutant, full-length, tagged at the C-terminus with mTurquoise or eYFP (receptor, UniProt P29317 24-976, looked up)
chain: AQGKEVVLLDFAAAGGELGWLTHPYGKGWDLMQNIMNDMPIYMYSVCNVMSGDQDNWLRTNWVYRGEAERIFIELKFTVRDCNSFPGGASSCKETFNLYYAESDLDYGTNFQKRLFTKIDTIAPDEITVSSDFEARHVKLNVEERSVGPLTRKGFYLAFQDIGACVALLSVRVYYKKCPELLQGLAHFPETIAGSDAPSRATVAGTCVDHAVVPPGGEEPRMHCAVDGEWRRPIGQCLCQAGYEKVEDACQACSPGFFKFEASESPCLECPEHTLPSPEGATSCECEEGFFRAPQDPASMPCTRPPSAPHYLTAVGMGAKVELRWTPPQDSGGREDIVYSVTCEQCWPESGECGPCEASVRYSEPPHGLTRTSVTVSDLEPHMNYTFTVEARNGVSGLVTSRSFRTASVSINQTEPPKVRLEGRSTTSLSVSWSIPPPQQSRVWKYEVTYRKKGDSNSYNVRRTEGFSVTLDDLAPDTTYLVQVQALTQEGQGAGSKVHEFQTLSPEGSGNLAVIGGVAVGVVLLLVLAGVGFFIHRRRKNQRARQSPEDVYFSKSEQLKPLKTYVDPHTYEDPNQAVLKFTTEIHPSCVTRQKVIGAGEFGEVYKGMLKTSSGKKEVPVAIKTLKAGYTEKQRVDFLGEAGIMGQFSHHNIIRLEGVISKYKPMMIITEYMENGALDKFLREKDGEFSVLQLVGMLRGIAAGMKYLANMNYVHRDLAARNILVNSNLVCKVSDFGLSRVLEDDPEATYTTSGGKIPIRWTAPEAISYRKFTSASDVWSFGIVMWEVMTYGERPYWELSNHEVMKAINDGFRLPTPMDCPSAIYQLMMQCWQQERARRPKFADIVSILDKLIRAPDSLKTLADFDPRVSIRLPSTSGSEGVPFRTVSEWLESIKMQQYTEHFMAAGYTAIEKVVQMTNDDIKRIGVRLPGHQKRIAYSLLGLKDQVNTVGIPI
Regarding B1, the binding entry in assay [3] is reported as “binds”.

The values are drawn from PMC6123813 (Communications biology, 2018).
